# Source: PubChem BioAssay AID2551 (National Center for Advancing Translational Sciences (NCATS), 2010)
# The chains behind the UniProt entries cited, without tags or fusion partners. Where a name states a change or a piece, a line headed by the entry shows the natural chain unless it says otherwise.
# UniProt P51450: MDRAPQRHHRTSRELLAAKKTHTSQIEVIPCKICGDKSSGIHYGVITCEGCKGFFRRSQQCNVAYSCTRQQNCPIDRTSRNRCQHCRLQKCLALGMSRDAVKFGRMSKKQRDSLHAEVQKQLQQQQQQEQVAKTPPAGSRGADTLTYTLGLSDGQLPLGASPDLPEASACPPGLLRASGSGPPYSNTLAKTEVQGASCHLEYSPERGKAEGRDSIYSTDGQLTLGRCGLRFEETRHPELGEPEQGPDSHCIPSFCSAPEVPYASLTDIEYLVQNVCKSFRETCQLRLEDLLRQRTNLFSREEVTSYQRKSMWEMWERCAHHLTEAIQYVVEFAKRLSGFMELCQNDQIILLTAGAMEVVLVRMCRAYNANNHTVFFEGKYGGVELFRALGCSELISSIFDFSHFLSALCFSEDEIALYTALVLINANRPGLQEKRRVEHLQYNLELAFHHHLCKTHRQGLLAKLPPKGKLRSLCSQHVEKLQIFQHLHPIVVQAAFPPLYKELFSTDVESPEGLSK
# The campaign covered roughly 310,000 compounds. About 17,000 (5.5%) were called active. The inconclusive results got no clear call from the source; some entries with a clear call stand among them for comparison. Calls follow the shape of the dose curve; as a rule, active = well fitted inhibition curve with a large enough effect; inconclusive = small, poorly fitted or top-dose-only effect, or effect the other way; inactive = no such curve, though single readings can be large or run the other way. Potencies beside an inconclusive call are fits to weak or partial responses and may not hold up.
# Biological target: Nuclear receptor ROR-gamma (Mus musculus) (UniProt P51450)
# Experiment: qHTS for inhibitors of ROR gamma transcriptional activity; also: nearly all actives have a fitted effect of over 60% in size
# Conditions: Drosophila S2 Gal4-RORgamma UAS-luciferase reporter, 20 h; series mostly up to 53.6 µM
# In short: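 Stable Schneider cell line, Gal4 DNA-binding domain fused to ROR gamma, UAS-luciferase. Cmpd 1 hr RT → CuSO4 700 uM final → 20 hr RT → luciferase reagent 10 min → luminescence.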
# Potency is read from the fitted curve at half-maximal effect.
row,Compound,Potency
1,Cc1cccc2[nH]c3c(N4CCC5(CC4)OCCO5)ncnc3c12,active: 11.2 µM
2,CCCCC#Cc1ccc(C(=O)NNC(=O)Nc2ccccc2)o1,inactive
3,S=C(Nc1ccc(Cl)cc1)N1CCN(C2CCCCC2)CC1,"inconclusive: 10 µM [inhibitor, partial curve, poor fit]"
4,CC(C)(C)N(NC(=O)Nc1ccc(Cl)c(Cl)c1)C(=O)c1ccccc1,"inconclusive: 35.5 µM [activator, single point]"
5,CCOC(=O)N1CCC(NC(=O)c2cc(S(=O)(=O)N3CCc4ccccc43)cn2C)CC1,"inconclusive: 15.8 µM [activator, partial curve]"
6,Cc1cc(C)cc(SCc2noc(C(=O)NC(C)C)c2C(=O)O)c1,"inconclusive: 35.5 µM [inhibitor, single point]"
7,CC(C)(C)NC(=O)COc1ccc(CNCCc2ccccc2)cc1,inactive
8,COc1ccc(/C=N/NC(=O)c2ccc(COc3ccccc3Cl)o2)cc1,"inconclusive: 35.5 µM [inhibitor, single point]"
9,COc1ccc(C(=O)NC(=S)N2CCCCC2)cc1[N+](=O)[O-],active: 0.891 µM
10,Cc1c(Cl)cnc(NC(=O)CSc2nnc(C)n2Cc2ccccc2)c1Cl,"inconclusive: 35.5 µM [inhibitor, single point]"
11,CSc1ccccc1NC(=O)CN(C)Cc1c(O)ccc2ccccc12,"inconclusive: 15.8 µM [inhibitor, single point]"
12,CC(C)c1cc(C(C)C)c(S(=O)(=O)Nc2cccc3cccnc23)c(C(C)C)c1,active: 0.0501 µM
13,CCCn1c(-c2ccc(OC)cc2)nc2nc3ccccc3nc21,inactive
14,O=C(NC(=S)N1CCCc2ccccc21)c1ccc(Br)cc1,inactive
15,Cc1ccc(-c2nc(C(Cl)Cl)c3ccccc3n2)cc1,"inconclusive: 7.94 µM [inhibitor, full curve, poor fit]"
16,COc1ccc(Cl)cc1NC(=S)N(CCCN1CCOCC1)Cc1cn(C)c2ccccc12,active: 12.6 µM
17,O=C(O)c1cccc(Cn2c(Cl)c(/C=N/NC(=O)c3ccccc3Cl)sc2=O)c1,inactive
18,CC(=O)N(C)C1=C(N2CCOCC2)C(=O)c2ccccc2C1=O,active: 8.91 µM
19,CCCCNC(=O)COC(=O)c1c2c(nc3ccccc13)/C(=C/c1cccs1)CC2,"inconclusive: 1.26 µM [inhibitor, full curve, poor fit]"
20,S=C1NC2(CCCCC2)Nc2ccccc21,active: 7.08 µM
21,O=C(N/N=C/c1ccccc1OCc1ccccc1Cl)c1cccnc1,"inconclusive: 14.1 µM [inhibitor, single point]"

# Numbers 17 to 18 of the list above:
row,Compound,Potency
17,O=C(O)c1cccc(Cn2c(Cl)c(/C=N/NC(=O)c3ccccc3Cl)sc2=O)c1,inactive
18,CC(=O)N(C)C1=C(N2CCOCC2)C(=O)c2ccccc2C1=O,active: 8.91 µM
